Test results as given in US11752138B2 (VANDERBILT UNIVERSITY, priority 2020, dated 2023).
For at least one compound, name, drawing or mass did not settle the structure.

Target: Human LDHA (Homo sapiens (Human), UniProt P00338)
Experiment: human LDHA primary biochemical assay (Example 1)
Conditions: biochemical LDHA inhibitory activity, assay of Example 1
Description: This example describes a human LDHA primary biochemical assay employed in the characterization of a compound of Formula I in an embodiment of the dislcosure.
Test compounds were placed in a Greiner Bio-One (Monroe, N.C.) 1536-well black solid bottom assay plate. 200 millimolar (mM) Tris HCl, pH 7.4, 100 micromolar (μM) EDTA and 0.01% TWEEN-20™, final concentration, was used as the assay buffer. The LDHA reagent was 2 nanomolar (nM) Human LDHA (Meridian Life Science, Inc., Memphis, Tenn.), final concentration, in assay buffer. The substrate reagent was 0.06 mM NADH and 0.2 mM sodium pyruvate, final concentration, in assay buffer. The resazurin/diaphorase coupling reagent was 0.037 mM resazurin and 0.133 milligrams per milliliter (mg/mL) diaphorase, final concentration, in assay buffer. The inhibition of LDHA activity was measured by fluorescence emission. […]

SMILES	IC50 [µM]
Cc1ccc(C#Cc2cc(-c3nn(-c4nc(C(N)=O)cs4)c(CC4CC4)c3Cc3ccc(S(N)(=O)=O)c(F)c3)ccc2F)s1 [Compound 162, 2-(5-(cyclopropylmethyl)-3-(4-fluoro-3-((5-methylthiophen-2-yl)ethynyl)phenyl)-4-(3-fluoro-4-sulfamoylbenzyl)-1H-pyrazol-1-yl)thiazole-4-carboxamide]	< 0.1
Cc1cccc(-c2cc(-c3nn(-c4nc(C(=O)O)cs4)c(CC4CC4)c3Cc3ccc(S(N)(=O)=O)c(F)c3)ccc2F)c1 [Compound 141, 2-(5-(cyclopropylmethyl)-3-(6-fluoro-3′-methyl-[1,1′-biphenyl]-3-yl)-4-(3-fluoro-4-sulfamoylbenzyl)-1H-pyrazol-1-yl)thiazole-4-carboxylic acid]	< 0.1
